Test results taken from the supplement of paper PMC8728848.
Some of the results follow.

Tests used:
Assay in all cases: glycan array binding signal (z-score within array); higher = stronger binding
Conditions in all cases: glycan notation: IUPAC condensed, linker removed
[1] = molecular target: Gal(b1-3)[Fuc(a1-4)]GlcNAc(b1-6)GalNAc
Procedure, shortened: (§1)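 Glycan array data were curated from 3228 arrays in the Consortium for Functional Glycomics database and kept only where the protein sequence was available. Glycan names were converted to IUPAC-condensed notation, and columns mapping to the same glycan were averaged. The binding signal is a within-array Z-score, averaged across arrays of the same protein sequence at different concentrations or buffers and across linkers. Negative Z-scores can be read as non-binding.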

[2] = molecular target: Gal(b1-3)[GlcNAc(b1-6)]GalNAc
Procedure, shortened: as §1

[3] = molecular target: Gal(b1-3)[Neu5Ac(a2-6)]GalNAc
Procedure, shortened: as §1

[4] = molecular target: Gal(b1-3)[Neu5Ac(a2-6)]GlcNAc(b1-4)Gal(b1-4)Glc
Procedure, shortened: as §1

[5] = molecular target: Gal(b1-3)[Neu5Ac(b2-6)]GalNAc
Procedure, shortened: as §1

Gal(b1-4)Gal = molecular target: Gal(b1-4)Gal
Procedure, shortened: as §1

[6] = molecular target: Gal(b1-4)GalNAc(a1-3)[Fuc(a1-2)]Gal(b1-4)GlcNAc
Procedure, shortened: as §1

[7] = molecular target: Gal(b1-4)GalNAc(b1-3)[Fuc(a1-2)]Gal(b1-4)GlcNAc
Procedure, shortened: as §1

Gal(b1-4)Glc = molecular target: Gal(b1-4)Glc
Procedure, shortened: as §1

Gal(b1-4)Glc6S = molecular target: Gal(b1-4)Glc6S
Procedure, shortened: as §1

Gal(b1-4)GlcNAc = molecular target: Gal(b1-4)GlcNAc
Procedure, shortened: as §1

[8] = molecular target: Gal(b1-4)GlcNAc(a1-6)Gal(b1-4)GlcNAc
Procedure, shortened: as §1

Gal(b1-4)GlcNAc(b1-2)Man = molecular target: Gal(b1-4)GlcNAc(b1-2)Man
Procedure, shortened: as §1

[9] = molecular target: Gal(b1-4)GlcNAc(b1-2)Man(a1-3)Man(b1-4)GlcNAc(b1-4)GlcNAc
Procedure, shortened: as §1

[10] = molecular target: Gal(b1-4)GlcNAc(b1-2)Man(a1-3)[Gal(b1-4)GlcNAc(b1-2)Man(a1-6)]Man(b1-4)GlcNAc(b1-4)GlcNAc
Procedure, shortened: as §1

[11] = molecular target: Gal(b1-4)GlcNAc(b1-2)Man(a1-3)[Gal(b1-4)GlcNAc(b1-2)Man(a1-6)]Man(b1-4)GlcNAc(b1-4)[Fuc(a1-6)]GlcNAc
Procedure, shortened: as §1

[12] = molecular target: Gal(b1-4)GlcNAc(b1-2)Man(a1-3)[Gal(b1-4)GlcNAc(b1-2)Man(a1-6)][Gal(b1-4)GlcNAc(b1-4)]Man(b1-4)GlcNAc(b1-4)[Fuc(a1-6)]GlcNAc
Procedure, shortened: as §1

[13] = molecular target: Gal(b1-4)GlcNAc(b1-2)Man(a1-3)[Gal(b1-4)GlcNAc(b1-2)Man(a1-6)][GlcNAc(b1-4)]Man(b1-4)GlcNAc(b1-4)[Fuc(a1-6)]GlcNAc
Procedure, shortened: as §1

[14] = molecular target: Gal(b1-4)GlcNAc(b1-2)Man(a1-3)[GlcNAc(b1-2)Man(a1-6)]Man(b1-4)GlcNAc(b1-4)GlcNAc
Procedure, shortened: as §1

[15] = molecular target: Gal(b1-4)GlcNAc(b1-2)Man(a1-3)[GlcNAc(b1-4)][Gal(b1-4)GlcNAc(b1-2)Man(a1-6)]Man(b1-4)GlcNAc(b1-4)GlcNAc
Procedure, shortened: as §1

[16] = molecular target: Gal(b1-4)GlcNAc(b1-2)Man(a1-3)[Man(a1-6)]Man(b1-4)GlcNAc(b1-4)GlcNAc
Procedure, shortened: as §1

[17] = molecular target: Gal(b1-4)GlcNAc(b1-2)Man(a1-6)Man(b1-4)GlcNAc(b1-4)GlcNAc
Procedure, shortened: as §1

[18] = molecular target: Gal(b1-4)GlcNAc(b1-2)Man(a1-6)[GlcNAc(b1-2)Man(a1-3)]Man(b1-4)GlcNAc(b1-4)GlcNAc
Procedure, shortened: as §1

[19] = molecular target: Gal(b1-4)GlcNAc(b1-2)Man(a1-6)[Man(a1-3)]Man(b1-4)GlcNAc(b1-4)GlcNAc
Procedure, shortened: as §1

[20] = molecular target: Gal(b1-4)GlcNAc(b1-2)[Gal(b1-4)GlcNAc(b1-4)]Man(a1-3)[Gal(b1-4)GlcNAc(b1-2)Man(a1-6)]Man(b1-4)GlcNAc(b1-4)GlcNAc
Procedure, shortened: as §1

[21] = molecular target: Gal(b1-4)GlcNAc(b1-2)[Gal(b1-4)GlcNAc(b1-4)]Man(a1-3)[Gal(b1-4)GlcNAc(b1-2)[Gal(b1-4)GlcNAc(b1-6)]Man(a1-6)]Man(b1-4)GlcNAc(b1-4)GlcNAc
Procedure, shortened: as §1

[22] = molecular target: Gal(b1-4)GlcNAc(b1-2)[Gal(b1-4)GlcNAc(b1-4)]Man(a1-3)[Gal(b1-4)GlcNAc(b1-2)[Gal(b1-4)GlcNAc(b1-6)]Man(a1-6)][GlcNAc(b1-4)]Man(b1-4)GlcNAc(b1-4)GlcNAc
Procedure, shortened: as §1

[23] = molecular target: Gal(b1-4)GlcNAc(b1-2)[Gal(b1-4)GlcNAc(b1-4)]Man(a1-3)[GlcNAc(b1-4)][Gal(b1-4)GlcNAc(b1-2)Man(a1-6)]Man(b1-4)GlcNAc(b1-4)GlcNAc
Procedure, shortened: as §1

[24] = molecular target: Gal(b1-4)GlcNAc(b1-2)[Gal(b1-4)GlcNAc(b1-6)]Man(a1-6)[Gal(b1-4)GlcNAc(b1-2)Man(a1-3)]Man(b1-4)GlcNAc(b1-4)GlcNAc
Procedure, shortened: as §1

[25] = molecular target: Gal(b1-4)GlcNAc(b1-2)[Gal(b1-4)GlcNAc(b1-6)]Man(a1-6)[Gal(b1-4)GlcNAc(b1-2)Man(a1-3)]Man(b1-4)GlcNAc(b1-4)[Fuc(a1-6)]GlcNAc
Procedure, shortened: as §1

[26] = molecular target: Gal(b1-4)GlcNAc(b1-2)[Gal(b1-4)GlcNAc(b1-6)]Man(a1-6)[GlcNAc(b1-4)][Gal(b1-4)GlcNAc(b1-2)Man(a1-3)]Man(b1-4)GlcNAc(b1-4)GlcNAc
Procedure, shortened: as §1

[27] = molecular target: Gal(b1-4)GlcNAc(b1-2)[Gal(b1-4)GlcNAc(b1-6)]Man(a1-6)[GlcNAc(b1-4)][Gal(b1-4)GlcNAc(b1-2)[Gal(b1-4)GlcNAc(b1-4)]Man(a1-3)]Man(b1-4)GlcNAc(b1-4)[Fuc(a1-6)]GlcNAc
Procedure, shortened: as §1

[28] = molecular target: Gal(b1-4)GlcNAc(b1-3)Gal(b1-3)GalNAc
Procedure, shortened: as §1

[29] = molecular target: Gal(b1-4)GlcNAc(b1-3)Gal(b1-3)GlcNAc
Procedure, shortened: as §1

[30] = molecular target: Gal(b1-4)GlcNAc(b1-3)Gal(b1-4)Glc
Procedure, shortened: as §1

[31] = molecular target: Gal(b1-4)GlcNAc(b1-3)Gal(b1-4)GlcNAc
Procedure, shortened: as §1

[32] = molecular target: Gal(b1-4)GlcNAc(b1-3)Gal(b1-4)GlcNAc(b1-2)Man(a1-3)[Gal(b1-4)GlcNAc(b1-3)Gal(b1-4)GlcNAc(b1-2)Man(a1-6)]Man(b1-4)GlcNAc(b1-4)GlcNAc
Procedure, shortened: as §1

[33] = molecular target: Gal(b1-4)GlcNAc(b1-3)Gal(b1-4)GlcNAc(b1-2)Man(a1-3)[Gal(b1-4)GlcNAc(b1-3)Gal(b1-4)GlcNAc(b1-2)Man(a1-6)]Man(b1-4)GlcNAc(b1-4)[Fuc(a1-6)]GlcNAc
Procedure, shortened: as §1

B1: RbmA (Vibrio cholerae), A0A2H4NFB8 (protein)
chain: MSNFKGSIMNKRHYYLASCLALLFSTASYAEVDCELQPVIEANLSLNQNQLASNGGYISSQLGIRNESCETVKFKYWLSIKGPEGIYFPAKAVVGVDTAQQESDALTDGRMLNVTRGFWVPEYMADGKYTVSLQVVAENGEVFKANQEFVKGGDLNSLPELNGLTIDIKNQFGINSVESTGGFVPFTIDLNNGREGEAKVEFWMTAVGPDGLIIPVHSREKWMIIAGNTFSKVRGINFDKSYPAGEYTINAQVVDIVSGERVEQLMTVVKK
glycan array binding signal (z-score) [1]: -0.562
glycan array binding signal (z-score) [2]: -0.519
glycan array binding signal (z-score) [3]: -0.239
glycan array binding signal (z-score) [4]: 0.856
glycan array binding signal (z-score) [5]: -0.623
glycan array binding signal (z-score) (Gal(b1-4)Gal): 0.213
glycan array binding signal (z-score) [6]: -0.268
glycan array binding signal (z-score) [7]: -0.685
glycan array binding signal (z-score) (Gal(b1-4)Glc): 0.424
glycan array binding signal (z-score) (Gal(b1-4)Glc6S): 0.408
glycan array binding signal (z-score) (Gal(b1-4)GlcNAc): -0.461
glycan array binding signal (z-score) [8]: -1.11
glycan array binding signal (z-score) (Gal(b1-4)GlcNAc(b1-2)Man): -0.365
glycan array binding signal (z-score) [9]: 0.354
glycan array binding signal (z-score) [10]: -0.069
glycan array binding signal (z-score) [11]: 0.535
glycan array binding signal (z-score) [12]: 2.73
glycan array binding signal (z-score) [13]: -0.287
glycan array binding signal (z-score) [14]: -0.515
glycan array binding signal (z-score) [15]: -0.938
glycan array binding signal (z-score) [16]: 1.48
glycan array binding signal (z-score) [17]: -0.982
glycan array binding signal (z-score) [18]: -1.26
glycan array binding signal (z-score) [19]: -0.611
glycan array binding signal (z-score) [20]: -1.2
glycan array binding signal (z-score) [21]: 0.916
glycan array binding signal (z-score) [22]: 0.191
glycan array binding signal (z-score) [23]: -0.125
glycan array binding signal (z-score) [24]: -0.188
glycan array binding signal (z-score) [25]: 1.14
glycan array binding signal (z-score) [26]: 0.262
glycan array binding signal (z-score) [27]: 0.642
glycan array binding signal (z-score) [28]: -0.423
glycan array binding signal (z-score) [29]: -0.596
glycan array binding signal (z-score) [30]: -0.269
glycan array binding signal (z-score) [31]: -0.048
glycan array binding signal (z-score) [32]: 0.31
glycan array binding signal (z-score) [33]: 0.281
